According to the supplement of paper PMC3334620:
Whole data set: some 33,000 sequences, median “E-score (-0.5 to 0.5)” near -0.0059, cut for the highest 2% near 0.26. The list shows a part of the results.

These sequences were tested against T1, Cin5 (UniProt P40917) (assay: PBM E-score (8-mer binding enrichment) (E-score (-0.5 to 0.5)); higher = stronger / more preferred TF binding). Details: protein concentration: 100 nM; construct: GST-full length.
T1 sequence: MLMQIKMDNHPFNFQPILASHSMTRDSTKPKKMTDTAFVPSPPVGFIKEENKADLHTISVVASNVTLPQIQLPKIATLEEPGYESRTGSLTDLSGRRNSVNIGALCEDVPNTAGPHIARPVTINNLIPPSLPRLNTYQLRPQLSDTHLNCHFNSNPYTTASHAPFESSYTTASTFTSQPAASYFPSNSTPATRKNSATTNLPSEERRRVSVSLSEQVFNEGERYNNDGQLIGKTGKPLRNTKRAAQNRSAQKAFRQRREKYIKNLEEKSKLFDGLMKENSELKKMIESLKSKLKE
Procedure, shortened: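 Detection of bound protein used fluorescent anti-GST, with scans normalised by masliner. The proteins were GST-tagged yeast transcription factors applied at about 100-200 nM to universal all-10-mer Agilent arrays made double-stranded by primer extension. Each ungapped eight-base word, pooled with its reverse complement, was scored with an E-score from the Universal PBM Analysis Suite.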

Sequence | PBM E-score
CTCAGAAA | 0.0121
CTTACCCC | -0.193
ACTTGTTG | -0.163
ACTTCTGC | 0.134
CATGACGC | 0.0601
ATTATGGG | 0.0617
CAAGACCA | -0.0752
AAGGAGGC | -0.233
ATAGAATA | 0.277
GTCTGCTA | -0.074
CCCCCTCG | -0.401
AGAGATAC | 0.0582
CCAAGAGG | -0.112
AGAGCAAA | -0.055
AGGGTGTC | -0.136
CAGGAGAG | -0.226
AAGATATA | 0.152
CCTGTGTA | 0.0446
CTGCAACA | 0.0981
ATCTATCA | 0.0882
AATACTAT | 0.214
ACCCGTAA | -0.0289
CGCGGGGA | 0.216
CCCTCGAC | -0.114
GTACGTAC | -0.00455

Sequence | PBM E-score
GTCATTCA | 0.0611
GCAAAACA | 0.138
ATGACAAG | 0.108
GAGCCTTA | -0.14
GACTTGGC | -0.178
CGTCGGCC | -0.0669
CGGGCTTA | 0.0462
ACCTCATC | 0.0947
CGGACCCG | -0.123
GCTGCACC | -0.0592
CGCATTAC | 0.143
AGAGCTTA | 0.0142
ATCTCATA | 0.0166
CTACCATC | -0.0801
GAGGCCGC | -0.314
CCCGGAAC | 0.0654
AACTGTAA | 0.205
CGTTCGGC | 0.0473
CGTAACTA | 0.097
AAAAGAGC | -0.0975
AGTATATC | 0.126
ATGTAGGA | -0.152
CGGTTTTC | 0.0743
ATCGACAT | 0.0947
GAAGGCGA | -0.0397

Sequence | PBM E-score
ATCATACC | 0.168
GGCTACCC | -0.268
GGATCCGA | -0.105
GACATGTC | -0.0531
ACCCGGAC | -0.132
AAAAAACA | 0.284
ATTATCTA | 0.315
GTTATGCA | 0.0592
AAGAAACG | -0.0122
TCAGTCGA | 0.129
CCTGAGAA | 0.0088
ATATACTA | 0.318
CAGAGCGG | -0.0525
CCTGCCTA | 0.0485
AGTTGTTG | 0.0199
CCCGTGTA | -0.0984
CCACGGAC | -0.237
CGAGCCAA | -0.00363
AGCGAGCA | 0.0383
GTCGCCTA | -0.165
AGGTATTC | 0.0294
ACGCGGGC | -0.0161
AATACGCA | 0.152
AAATCAAC | 0.133
CTCGCTCC | -0.0765

3 records drawn at random from the list so far, as already listed:
Sequence | PBM E-score
AATACGCA | 0.152
AGTTGTTG | 0.0199
AAGAAACG | -0.0122

More results.

Sequence | PBM E-score
ACACCAGG | -0.221
CGATAATC | 0.00964
ACGTCACC | 0.129
GTGGGACA | -0.227
CAAGTCCC | -0.224
CACTGAAA | 0.108
GACCGTAC | -0.276
ATGTCCAC | -0.00331
ATCCTATA | 0.212
AGTCGCTA | -0.223
CATAGCCA | 0.0386
CTAGGCCC | -0.227
AGCGGGTG | -0.164
GCAAGGGA | -0.233
ACCTTCAC | -0.107
ATATTATC | 0.233
GATTACAC | 0.233
ATTTCGGA | 0.0876
GTGTGTCA | 0.0629
GGGTTTGA | 0.0823
GGACACGA | -0.254
CATCAGAA | 0.139
GAAACCCC | -0.102
AGGGCTGC | -0.185
CAGTCCTA | -0.0967

Sequence | PBM E-score
GAGTTGAC | -0.058
GAGCCAAC | -0.053
CAGCGATG | -0.0506
ACCGGACT | -0.118
AACTAGGC | -0.102
CGCTTCCG | -0.0349
AGTTCCCG | -0.0236
AGCAAGAA | 0.0824
GTCTGCAC | -0.187
AGCTTAAG | -0.0114
CTTTGCTC | -0.0382
AAAGAGCC | -0.204
ATGGCCTG | -0.0934
TAGCTGAA | 0.0731
TACACTAA | 0.0126
ACCGCCCC | 0.00527
ACATCACG | -0.028
ATGAGATG | 0.133
ACGGTCCA | -0.195
CCCCGCTC | -0.341
CGATCAAC | -0.204
GCTATATA | 0.153
CCGCCAGC | -0.145
GGAAGAGA | 0.0397
GAACGTCA | -0.161

Sequence | PBM E-score
CGGTATTA | 0.0488
ACAGATGG | -0.0571
ATGGTCGA | -0.0503
AGGATGAC | -0.091
ACACGTGT | -0.0679
GGAGACTA | -0.043
ATTTCATG | 0.0256
GATATGGC | -0.129
CTGTTGGA | -0.0447
AGACAGAA | 0.0862
CCGGGAGG | -0.192
CGAAATGA | 0.19
CAGAAGGC | -0.1
ATTGAGTA | 0.262
AAGGACCA | -0.0692
ATATCGCA | -0.00978
AGCGGGAT | 0.0177
GGGCGCAC | -0.28
CTCCCTAC | -0.12
CAGTATCC | 0.0471
CGGATAAC | 0.0563
GAACCGAC | 0.00921
CGTGGTCA | -0.0679
ATAAAATG | 0.212
AATATTAC | 0.294

A stretch from the list above, as a working copy:
Sequence | PBM E-score
ATCTATCA | 0.0882
AATACTAT | 0.214
ACCCGTAA | -0.0289
CGCGGGGA | 0.216

The results go on:

Sequence | PBM E-score
ACTCTGGC | -0.0926
GCGCGTTA | 0.0369
AGCGTCAA | -0.0654
AGAGTCAT | -0.211
ATTGACGC | 0.0226
ACTTCGAA | -0.0401
ACCCCCAC | -0.499
TAAGGGGA | -0.0738
ATAACAAT | 0.158
ATCATCGG | -0.0926
ACTTATAG | 0.0109
AAGCGAGT | 0.213
ATTAAAAG | 0.0602
ATAAAGAC | -0.0136
ATCCGCTC | -0.0897
ATCGCCAT | 0.0802
AAACGCGA | 0.0555
GTCGCGTA | 0.054
GAAGGGGC | -0.222
TGAGAACA | 0.0792
CATCTTGG | 0.0766
CATCGGCA | -0.113
